Reference: PMC7199964
For at least one entry, the source does not settle the construct or the ends of the probe. For part of these data: No signal at the amounts used counts as a negative. For part of these data: Weaker means in comparison with the reference protein, sequence or condition of that experiment. For part of these data: At least one verdict was read from the data and is not stated in words by the source.

Experiments:
Assay in all cases: fluorescence polarization
IMP1 KH1-2 variant = IMP1 KH1-2 variant (UniProt Q9NZI8); conditions: FP: 300 nM IMP1, 10 nM probe (inhibitor assays), binding buffer stock 50 mM Tris-Cl pH 7.4, 12.5 mM EDTA pH 8, 25% glycerol, 0.01% Triton-X, 37 C 30 min, recombinant protein, label: 3' 6-FL (fluorescein)
IMP1 KH3 variant = IMP1 KH3 variant (UniProt Q9NZI8); conditions: FP: 300 nM IMP1, 10 nM probe (inhibitor assays), binding buffer stock 50 mM Tris-Cl pH 7.4, 12.5 mM EDTA pH 8, 25% glycerol, 0.01% Triton-X, 37 C 30 min, recombinant protein, label: 3' 6-FL (fluorescein)
IMP1 KH3-4 variant = IMP1 KH3-4 variant (UniProt Q9NZI8); conditions: FP: 300 nM IMP1, 10 nM probe (inhibitor assays), binding buffer stock 50 mM Tris-Cl pH 7.4, 12.5 mM EDTA pH 8, 25% glycerol, 0.01% Triton-X, 37 C 30 min, recombinant protein, label: 3' 6-FL (fluorescein)
IMP1 wild type = IMP1 wild type (UniProt Q9NZI8); conditions: confluentin, inhibition from 40 uM; FP: 300 nM IMP1, 10 nM probe (inhibitor assays), binding buffer stock 50 mM Tris-Cl pH 7.4, 12.5 mM EDTA pH 8, 25% glycerol, 0.01% Triton-X, 37 C 30 min; recombinant protein; residues 1-577; label: 3' 6-FL (fluorescein)
KH1to4 IMP1 = KH1to4 IMP1 (UniProt Q9NZI8); conditions: FP: 300 nM IMP1, 10 nM probe (inhibitor assays), binding buffer stock 50 mM Tris-Cl pH 7.4, 12.5 mM EDTA pH 8, 25% glycerol, 0.01% Triton-X, 37 C 30 min, recombinant protein, label: 3' 6-FL (fluorescein)
KH3&4 IMP1 (KH34) = KH3&4 IMP1 (KH34) (UniProt Q9NZI8); conditions: no effect, FP: 300 nM IMP1, 10 nM probe (inhibitor assays), binding buffer stock 50 mM Tris-Cl pH 7.4, 12.5 mM EDTA pH 8, 25% glycerol, 0.01% Triton-X, 37 C 30 min, recombinant protein, label: 3' 6-FL (fluorescein)

AAAUUAGGGCCCAAUUAAUAAUCAGCAAGAAUUUGAUCG [39-nt CD44 RNA (nts 2862-2900)]
binding result (IMP1 KH1-2 variant; no increase even at 1000 nM): no binding | binding result (IMP1 KH3 variant; significantly reduced vs WT): binds more weakly | binding result (IMP1 KH3-4 variant; slightly reduced vs WT): binds more weakly

AUGGAGAAACCUGUCUCUUGGAUAUUCUCGACACAGCAGGUCAU [44-nt KRAS RNA (nts 142-185)]
binding result (IMP1 KH1-2 variant): no binding | binding result (IMP1 KH3 variant): binds more weakly | binding result (IMP1 KH3-4 variant): binds more weakly | binding result (IMP1 wild type): binds more weakly | binding result (KH1to4 IMP1; confluentin, inhibition above 40 uM): binds more weakly | binding result (KH1to4 IMP1; grifolin up to 100 uM, no effect): binds | binding result (KH1to4 IMP1; neogrifolin up to 100 uM, no effect): binds | binding result (KH3&4 IMP1 (KH34); grifolin up to 100 uM): binds | binding result (KH3&4 IMP1 (KH34); neogrifolin up to 100 uM): binds
